# Data as given in PubChem BioAssay AID1159595 (NIAID, 2016).
# Aim: 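Contribution of 126 core TLR signalling genes to the Pam3CSK4 inflammatory response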 (primary screen)
# Cell system: mouse RAW264.7 macrophage reporter cells
# Reagent: single siRNA against mouse genes
# Timing: assayed 48 to 72 hours after siRNA transfection; ligand applied for 16 hours
# Conditions: Pam3CSK4 (TLR2 ligand) for 16 hours before fixation; dose not given
# Measurement: 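High-content imaging of Tnf promoter-driven nuclear mCherry in cells given Pam3CSK4 for 16 h, 48–72 h after transfection; value is the replicate mean of plate-normalised background-corrected robust z-scores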
# Direction: Tnf reporter z-score (replicate mean): higher = stronger Tnf promoter reporter signal than negative control wells
# Rule for the call: 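An siRNA is active when its replicate-mean z-score is -1.5 or lower or 1.5 or higher (activity score at least 50); activity graded at absolute z 1, 1.5, 2 and 2.5; calls apply to single siRNAs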
# Calls: active = strong change (up or down); inactive = little change
# Shown is one part, drawn at random, of 756 deposited reagents. Over the whole deposit, 115 (15%) were called active. 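Active calls cover both lowered and raised reporter signal; each score refers to one siRNA rather than a whole gene.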 Entries without a mark were called inactive. The numbers tell different reagents against one gene apart. Not stated in the record: the amount of reagent.
gene knocked down,reagent no.,Tnf reporter z-score (replicate mean)
Irf3,1,1.23
Irf3,2,0.785
Irf3,3,-2.32 (active)
Irf3,4,-1.21
Irf3,5,-0.458
Irf3,6,0.387
Tlr4,1,-0.325
Tlr4,2,0.405
Tlr4,3,0.163
Tlr4,4,0.142
Tlr4,5,0.661
Tlr4,6,0.405
Ikbkg,1,0.418
Ikbkg,2,-1.51 (active)
Ikbkg,3,-0.764
Ikbkg,4,-2.32 (active)
Ikbkg,5,-0.709
Ikbkg,6,-0.456
Btk,1,-0.00431
Btk,2,-1.64 (active)
Btk,3,-0.762
Btk,4,-0.596
Btk,5,-0.645
Btk,6,0.144
Map2k4,1,0.599
Map2k4,2,-0.51
Map2k4,3,0.069
Map2k4,4,0.537
Map2k4,5,-1.06
Map2k4,6,-1.22
Pik3r2,1,-0.837
Pik3r2,2,-0.66
Pik3r2,3,-0.593
Pik3r2,4,0.879
Pik3r2,5,0.75
Pik3r2,6,-0.613
Cxcl11,1,-0.409
Cxcl11,2,-0.907
Cxcl11,3,0.605
Cxcl11,4,0.51
Cxcl11,5,-1.34
Cxcl11,6,-0.62
Il12b,1,-1.59 (active)
Il12b,2,-0.395
Il12b,3,-0.633
Il12b,4,1.01
Il12b,5,-1.51 (active)
Il12b,6,0.154
Map2k1,1,0.426
Map2k1,2,-0.998
Map2k1,3,-0.737
Map2k1,4,0.183
Map2k1,5,-0.623
Map2k1,6,-0.973
Ikbke,1,-1.73 (active)
Ikbke,2,-1.28
Ikbke,3,-0.701
Ikbke,4,-0.331
Ikbke,5,-0.498
Ikbke,6,-0.608
Tank,1,-1.43
Tank,2,1.47
Tank,3,0.548
Tank,4,0.58
Tank,5,1.3
Tank,6,0.366
Atf2,1,-1.51 (active)
Atf2,2,-0.865
Atf2,3,-0.409
Atf2,4,1.6 (active)
Atf2,5,-1.35
Atf2,6,-0.518
Mapk3,1,-1.69 (active)
Mapk3,2,1.52 (active)
Mapk3,3,-0.68
Mapk3,4,-0.242
Mapk3,5,-1.25
Mapk3,6,0.8

As entered above.
Entry for Cxcl11 #5 under “Tnf reporter z-score (replicate mean)”: -1.34
For “Tnf reporter z-score (replicate mean)”, Map2k1 #1 shows 0.426
For “Tnf reporter z-score (replicate mean)”, Il12b #6 is entered as 0.154
Entry of Map2k1 #6 under “Tnf reporter z-score (replicate mean)”: -0.973
For “Tnf reporter z-score (replicate mean)”, Irf3 #3 reads -2.32 (active)
Mapk3 #2, Tnf reporter z-score (replicate mean): 1.52 (active)
